From publication PMC7069958 come the findings set out here.

This data set relates to mB*UbxWT (myc-BirA*-GGSGG-Ubx isoform Ia). Description: EMSA. The settings on record: 20 mM HEPES pH 7.9, 1.4 mM MgCl2, 1 mM ZnSO4, 40 mM KCl, 0.1 mM EDTA, 5% glycerol, 0.2 ug poly(dI-dC), 0.1 ug BSA, 10 mM DTT, 0.1% NP40, 30 ul, 20 min; recombinant protein; residues 1-380; protein details: His, myc-BirA* (N-terminal fusion); label: 5'-Cy5. A general note: A gel shift assay detects complexes by their altered migration in electrophoresis.

For at least one entry, the source does not settle the construct or the ends of the probe. At least one verdict was read from the data and is not stated in words by the source.

As for “TTCAGAGCGAATGATTTATGACCGGTCAAG (double strand) [Ubx consensus site probe]”, the binding result is on record as “binds”.
